Measurements: patent US20080249144A1, “Preventive or Therapeutic Agent for Chronic Inflammatory Lung Disease” (KAKEN PHARMACEUITICAL CO., LTD., priority 2004, published 2008)
For at least one compound, name, drawing or mass did not settle the structure.

How the values were obtained:
human neutrophils = test: LTB4-induced human neutrophil migration (48-well modified Boyden chamber); type: cell-based; details: 10 nmol/L LTB4
Protocol: Leukocytes were collected from human peripheral blood samples (20 mL of venous blood was taken by a doctor) were obtained from 4 healthy adults (male). They received sufficient information on the purpose of the experiment and gave informed consent in advance. An equivalent amount of 3% dextran (M.W. 208000) saline solution was added to the heparinized blood thus obtained and the mixture was kept to stand for one hour. Thereafter, the supernatant was collected and centrifuged at 150 g for 5 minutes at 4° C. The supernatant was discarded and the pellet was repeatedly twice haemolysed. To explain in detail, 4 mL of an ice-cooled 0.2% NaCl solution was added, quickly suspended and allowed to stand for 20 to 30 seconds. Thereafter, 4 mL of an ice-cooled 1.6% NaCl solution was added to the suspension solution to return the solution to the isotonic condition. After centrifugation was performed at 150 g for 5 minutes at 4° C., the same treatment was repeated. The cell pellet obtained was finally suspended in a buffer (Hank's solution containing 0.1% FBS) and subjected to an experiment.
This experiment was performed using a 48-well modified Boyden chamber (Neuro Probe). To explain in detail, the wells of the bottom plate of the chamber were filled with 25 μl of vehicle solution containing 10 nmol/L of LTB4. A polycarbonate filter (PVP-free, pore size: 3 μm) was placed on the bottom plate. The top plate of the chamber was mounted and each well of the upper plate was filled with 45 μL of a leukocyte suspension solution (1.0×10^6 cells/mL) prepared with the buffer. Immediately after that, 5 μL of a test substance (10 fold concentration of a final concentration) was added to the wells. The chamber was incubated in a culture incubator (37° C., 5% CO2-95% air) for 1.5 hours. After the incubation, the cells (unmigrated cells) present on the top-plate side of the filter were cleaned up. Then the cells that migrated to the bottom-plate side of the filter were fixed in methanol for 5 minutes. The migrated cells were stained with Diff-Quick solution, air-dried on a slide glass and mounted with Entellan new. The cells completely passed through the filter were observed by high-power microscope. The numbers of cells were counted in 4 visual fields (×400) per well and the average of them was regarded as the number of migrated cells. Each test substance was evaluated using 3 wells. The average value of these wells was calculated and regarded as the value of each substance.
The average and standard deviation of each group were calculated. Comparison between the non-treated control group and the LTB4-treated control group was performed by the Levene's test for equal variance, followed by the t-test. […]

COPD patients = details: according to the reports (Non-patent documents 7, 8 and patent document 1); cited from earlier work

SMILES | suppression of LTB4-induced neutrophil migration (human neutrophils; test substance 1 μmol/L) | suppression of LTB4-induced neutrophil migration (human neutrophils; test substance 10 μmol/L) | respiratory function of COPD patients (COPD patients)
O=C(Nc1cccc2c(=O)cc(-c3nnn[nH]3)oc12)c1ccc(OCCCCc2ccccc2)cc1 [pranlukast] | did not suppress at all | suppressed migration | –
CC(C)(O)c1ccccc1CC[C@@H](SCC1(CC(=O)O)CC1)c1cccc(/C=C/c2ccc3ccc(Cl)cc3n2)c1 [montelukast] | did not suppress at all | suppressed migration | improves the respiratory function
